Common to all, as to conditions: whole synthesis, scale of the general procedure 500 mg resin
Data set [1] in a line: general procedure: Fmoc solid-phase peptide synthesis in flow; PepSyn KA; Fmoc-amino acid Pfp esters with Dhbt-OH; HObt esters by DIC.
Data set [2] is described as follows: general procedure: Fmoc solid-phase peptide synthesis in flow; Fmoc-Lys(Boc) PepSyn KA; Fmoc-amino acid Pfp esters with Dhbt-OH; HObt esters by DIC.
Data set [3] is described as follows: general procedure: Fmoc solid-phase peptide synthesis in flow; Fmoc-Lys(Boc) PepSyn KA resin (0.086 mmol/g); PepSyn K; NovaSyn TG; Fmoc-amino acid Pfp esters with Dhbt-OH; HObt esters by DIC.
A short description of data set [4]: general procedure: Fmoc solid-phase peptide synthesis in flow; PepSyn K; Fmoc-amino acid Pfp esters with Dhbt-OH; HObt esters by DIC.

H-Ala20-Lys3-OH: the difficulty met result in data set [1] is “target peptide H-Alan-Lys3-OH (n=20) as well as deletion peptides corresponding to n=19, 18, 17, and 16”.

H-Ala10-Lys3-OH registered a crude yield in data set [2] of 91.0%. In data set [3], the “crude HPLC purity” value is on record as “better than 98%”.

On to H-Ala10-Lys-OH, for which the difficulty met result is “target peptide H-Alan-Lys-OH (n=10) as well as deletion peptides corresponding to n=9, 8, 7, and 6” in data set [4] (run 2); “target peptide H-Alan-Lys-OH (n=10) as well as deletion peptides corresponding to n=9, 8, 7, and 6” in data set [4] (run 3); “target peptide H-Alan-Lys-OH (n=10) as well as deletion peptides corresponding to n=9, 8, 7, and 6” in data set [4] (run 4); “complicated mixture comprising the target peptide (n=10) as well as deletion peptides” in data set [2] (run 1).

As to “H-Val-Asn-Val-Asn-Val-Gln-Val-Gln-Val-Asp-Lys6-OH”, the “crude HPLC purity” value in data set [2] was “better than 90% pure”. In data set [3], this substance came in with a crude yield of 100%.

H-Ala10-Lys6-OH registered a crude yield in data set [2] of 90.9%. The “crude HPLC purity” value in data set [3] is on record as “better than 98%”.

In turn, H-Ala20-Lys6-OH returned a crude yield in data set [2] of 91.4%. In addition, the “crude HPLC purity” value in data set [3] was “better than 98%”.

For H-Ala20-Lys-(Gly-Lys)3-OH, the “crude HPLC purity” value in data set [2] was “better than 98% pure”. This substance yielded a crude yield in data set [3] of 97%.

(Values after patent US7348404 (dated 2008).)
